Measured values: patent US20020151488A1
These are yes or no findings as the source states them, for the method shown. Some results given as binding are weak or reduced against the parent protein; the word gives no strength.

Sequences of proteins named here, by UniProt entry; tags and fusion partners are left off. A change or cut given only in a name is not applied to a line headed by its entry.
UniProt P09919: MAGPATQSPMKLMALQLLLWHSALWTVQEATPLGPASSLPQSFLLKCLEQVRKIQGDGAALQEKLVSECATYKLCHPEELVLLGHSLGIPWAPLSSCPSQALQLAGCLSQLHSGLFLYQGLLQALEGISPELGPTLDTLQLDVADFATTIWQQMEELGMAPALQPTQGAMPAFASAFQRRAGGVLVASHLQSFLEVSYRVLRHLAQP

biological target: T1, G-CSF receptor (free receptor) (UniProt Q99062); assay: BIAcore 2000 competition: 2 nM free receptor mixed with mutant ligand, passed over immobilised His-tagged wild-type G-CSF
T1 sequence (looked up): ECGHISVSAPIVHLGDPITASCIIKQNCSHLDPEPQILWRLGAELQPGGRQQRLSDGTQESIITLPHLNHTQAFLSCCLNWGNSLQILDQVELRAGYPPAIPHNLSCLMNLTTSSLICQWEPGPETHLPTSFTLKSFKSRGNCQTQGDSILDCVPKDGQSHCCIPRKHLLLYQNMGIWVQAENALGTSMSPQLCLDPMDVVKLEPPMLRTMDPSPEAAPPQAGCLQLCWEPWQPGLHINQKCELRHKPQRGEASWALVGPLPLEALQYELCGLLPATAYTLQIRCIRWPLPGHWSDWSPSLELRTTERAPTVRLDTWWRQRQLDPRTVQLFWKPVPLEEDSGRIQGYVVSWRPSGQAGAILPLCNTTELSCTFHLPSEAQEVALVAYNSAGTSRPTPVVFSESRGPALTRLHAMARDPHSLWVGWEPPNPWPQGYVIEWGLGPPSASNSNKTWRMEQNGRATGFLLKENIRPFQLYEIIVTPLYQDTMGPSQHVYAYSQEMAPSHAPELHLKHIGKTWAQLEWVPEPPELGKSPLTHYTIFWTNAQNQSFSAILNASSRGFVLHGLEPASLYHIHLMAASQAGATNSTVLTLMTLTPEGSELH

binding	Substance
binds	[Ala^46]G-CSF (from UniProt P09919 31-207) (ligand)
binds	[Glu^26]G-CSF (from UniProt P09919 31-207) (ligand)
binds	[Leu^26]G-CSF (from UniProt P09919 31-207) (ligand)
binds	[Ala^33]G-CSF (from UniProt P09919 31-207) (ligand)
binds	[Glu^47]G-CSF (from UniProt P09919 31-207) (ligand)
binds	[Glu^50]G-CSF (from UniProt P09919 31-207) (ligand)
binds	[Ala^26]G-CSF (from UniProt P09919 31-207) (ligand)
binds	[Glu^144]G-CSF (from UniProt P09919 31-207) (ligand)
binds	[Ala^38]G-CSF (from UniProt P09919 31-207) (ligand)
binds	[Asp^30]G-CSF (from UniProt P09919 31-207) (ligand)
binds	[Glu^54]G-CSF (from UniProt P09919 31-207) (ligand)
binds	[Glu^41]G-CSF (from UniProt P09919 31-207) (ligand)
binds	[Ala^19]G-CSF (from UniProt P09919 31-207) (ligand)
